What was measured:
[1] = general procedure: Fmoc solid-phase peptide synthesis; 2-chlorotrityl chloride resin (0.5 mmol/g); hydrazine-functionalized 2-chlorotrityl resin; settings: for step yield: late stage modification step; for isolated yield: whole synthesis, scale of the general procedure 0.25 mmol
[2] = system: E. coli lysate; experiment: Shotgun proteomic analysis of E. coli lysate samples after cysteine alkylation/alkenylation; settings: E. coli lysate reduced with DTT, 50 mM reagent, trypsin digestion, LC-MS/MS, 0.3 μg peptides, three biological replicates; 1178 proteins overlapped in both

H D D C D D COOH
step yield [1]: 70%

H C Y I Q N C P L G COOH
step yield [1]: 65%

M Y D W S R N F HGACPGKLGCONH2
isolated yield [1]: ~30%

NC(=O)CI [IAM, iodoacetamide, reference compound]
Number of proteins identified only in samples labeled with this reagent [2]: 43 proteins

M Y D W S K P N F H R G C G L A GCONH2
isolated yield [1]: ~ 38% yield

M Y D W S K P N F H R G A G L A GCONH2
step yield [1]: ~ 84% yield

C#CN(CCO)S(=O)(=O)C(F)(F)F [2e]
Number of proteins identified only in samples labeled with this reagent [2]: 541 proteins

— PMC11428291 (ACS Central Science, 2024)
